Assay results taken from PubChem BioAssay AID2685 (National Center for Advancing Translational Sciences (NCATS), 2010).
The other results are listed elsewhere or left out. The main result of the screen is listed elsewhere. These columns were measured beside it and carry no call. The list favours compounds with an active or inconclusive main result. The note in brackets gives the kind of curve behind each potency; many fits are weak.

Assay: qHTS Assay for Lipid Storage Modulators in Drosophila S3 Cells;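 on cell number change: cells counted by Cell Tracker Red CMTPX staining in the red channel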
Conditions: BODIPY lipid droplet fluorescence, 18-24 h; for cell number change: measured here: cell count max response, cells fed with added oleic acid
In short: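 Drosophila S3 cells loaded with oleic acid (400 uM, as added) and compounds at several concentrations; lipid droplets imaged by 488-nm laser-scanning cytometry, 500–530 nm intensity and object ratio to cell channel. Percent activity normalized to 20 uM Triacsin C.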

[1] = measured here: lipid fluorescence (Fed channel) AC50, cells fed with added oleic acid
[2] = measured here: cell number channel AC50, cells fed with added oleic acid

Row | SMILES | cell number change | AC50 [1] | AC50 [2]
1 | O=C(NCC(c1ccco1)N1CCc2ccccc2C1)c1ccccc1Br (stereo unspecified) | 4.42% | 32.6 µM [falling, single point] | 
2 | Cc1ccnc(NS(=O)(=O)c2ccc(NC(=O)Cc3ccc(F)cc3)cc2)n1 | -16.3% |  | 
3 | O=C(CN1CCN(S(=O)(=O)c2ccc(Cl)cc2)CC1)Nc1ccc2c(c1)CCC2 | -10.6% | 9.2 µM [rising, partial curve] | 
4 | O=C1Cc2cc(S(=O)(=O)N3CCN(c4cccc(Cl)c4)CC3)ccc2N1 | 66% |  | 9.2 µM [rising, partial curve, poor fit]
5 | NS(=O)(=O)c1cccc(NC(=O)/C=C/c2cccs2)c1 | -42.3% |  | 
6 | CCc1cc(C(=O)Nc2cc(S(=O)(=O)N(CC)CC)ccc2N2CCN(C)CC2)sc1C | 25% | 16.4 µM [rising, single point] | 
7 | C/C(=N\NC(=O)Cc1cccn1C)c1cccs1 | 21.4% |  | 
8 | Cc1nn2c(Nc3ccc(F)cc3)c3c(nc2c1-c1ccccc1)CCC3 | -1.37% | 0.146 µM [falling, full curve, poor fit] | 
9 | CC(C)(C)c1ccc(C(=O)CSc2ncn[nH]2)cc1 |  |  | 6.51 µM [falling, single point]
10 | CCOc1ccc(-c2nnc3ccc(SCC(=O)Nc4nc5ccc(C)cc5s4)nn23)cc1 | -14.7% | 29.1 µM [falling, single point] | 
11 | O=C(/C=C/c1ccc(Cl)cc1Cl)NCCSCc1ccccc1 | 34.4% | 4.11 µM [rising, full curve] | 8.2 µM [rising, partial curve]
12 | CC(=O)CC1(OC(C)=O)C(=O)N(C)c2ccccc21 (stereo unspecified) | -35.5% | 23.1 µM [falling, single point] | 20.6 µM [falling, single point]
13 | O=C(Nc1ncccc1O)c1ccc(Oc2ccccc2)cc1 | 9.68% | 23.1 µM [rising, partial curve] | 
14 | O=C(O)c1cccc(NS(=O)(=O)c2cccc3cccnc23)c1 | 21% | 0.00517 µM [rising, full curve, poor fit] | 
15 | Cc1cccc(/C=N/NC(=O)Cn2nnnc2N)n1 | -49.7% | 29.1 µM [falling, single point] | 32.6 µM [falling, single point]
16 | O=C(Cc1ccccc1)NNC(=S)Nc1ccc(Cl)cc1 | -8.86% | 8.2 µM [rising, partial curve] | 
17 | CC(NS(=O)(=O)c1ccc(Cl)cc1)C(=O)NCc1ccco1 (stereo unspecified) | -108% | 29.1 µM [falling, single point] | 29.1 µM [falling, single point]
18 | Cc1cc(NC(=O)c2sc3ccccc3c2O)no1 | 24.4% |  | 5.8 µM [rising, single point]
19 | Cn1cnc(S(=O)(=O)Nc2cc(C(F)(F)F)ccc2N2CCOCC2)c1 | -40.8% |  | 10.3 µM [falling, single point]
20 | Nc1cc(N)nc(SCC(=O)Nc2ccc(Br)cc2Cl)n1 | 28.2% |  | 1.3 µM [rising, full curve, poor fit]

Row | SMILES | cell number change | AC50 [1] | AC50 [2]
21 | CC(c1nc2scc(-c3ccccc3)c2c(=O)[nH]1)N1CCN(CC(=O)NC2CC2)CC1 (stereo unspecified) |  | 6.51 µM [falling, single point] | 
22 | COc1ccc(-c2ccc3c(c2)S(=O)(=O)c2cccc(C(=O)NCc4ccccc4Cl)c2C3=O)cc1OC | -82.4% | 23.1 µM [falling, partial curve] | 4.61 µM [falling, full curve]
23 | O=C(Nc1ccc2c(c1)OCCO2)C1CCCN(S(=O)(=O)c2cccc3nsnc23)C1 (stereo unspecified) |  |  | 2.06 µM [rising, partial curve, poor fit]
24 | Cc1ccc(S(=O)(=O)Nc2nc3ccc(S(C)(=O)=O)cc3s2)cc1 | -7.87% | 2.31 µM [falling, full curve] | 
25 | O=C(COC(=O)COc1cccc(Br)c1)Nc1c(Cl)cccc1Cl | -0.627% | 2.59 µM [rising, full curve] | 
26 | CCN(C(=O)CSc1nnc(COc2cccc(C)c2)o1)c1nc(C)cs1 | -2.63% | 5.62 µM [rising, single point] | 
27 | O=C1CCCC2=C1C(c1cn(-c3ccccc3)nc1-c1cccs1)c1c([nH]c(=O)[nH]c1=O)N2 (stereo unspecified) | 1.36% | 0.103 µM [rising, full curve, poor fit] | 
28 | O=C(NCCCn1ccnc1)c1cc(S(=O)(=O)N2CCOCC2)ccc1F | -32.7% |  | 
29 | CCOc1ccc(C(=O)C2CCN(CC(=O)Nc3ccccc3N3CCOCC3)CC2)cc1 | 35.2% | 0.651 µM [rising, single point] | 1.84 µM [rising, partial curve]
30 | C=CCOc1ccc(CNCC2CCCO2)cc1 (stereo unspecified) | 39.8% | 29.1 µM [falling, single point] | 14.6 µM [rising, partial curve]
31 | Cc1cc(NC(=O)CSc2nnc3c4c(C)c(C)sc4ncn23)no1 | 11.2% |  | 0.116 µM [falling, single point]
32 | CCOC(=O)C1CCCN(C(=O)C2CCN(S(=O)(=O)c3ccc4ccccc4c3)CC2)C1 (stereo unspecified) | -1.66% | 14.6 µM [falling, partial curve] | 
33 | CCC1(C(=O)OC)NC(c2ccco2)C2C(=O)N(c3ccc(C)cc3)C(=O)C21 (stereo unspecified) |  | 0.00461 µM [falling, full curve, poor fit] | 
34 | O=S(=O)(N1CCCCC1)N1CCNCC1 | 13.8% | 23.1 µM [falling, single point] | 
35 | COC(=O)c1ccc(Nc2nc(N3CCOCC3)nc(N3CCOCC3)n2)cc1 | 0.295% | 0.58 µM [rising, single point] | 
36 | CCOc1cc(C(=O)N(C)Cc2cc3ccccc3[nH]c2=O)cc(OCC)c1OCC | 127% | 0.651 µM [rising, single point] | 0.411 µM [rising, single point]
37 | Cc1cc(NC(=O)/C=C/c2ccccc2Cl)no1 | -20.8% | 29.1 µM [falling, single point] | 2.06 µM [rising, partial curve]
38 | COCc1cc(C)nc(N/N=C/c2ccc(-c3cc(C(=O)O)ccc3Cl)o2)c1C#N | 4.26% |  | 
39 | COc1ccc(NC(=S)NC(=O)c2ccc(Br)o2)cc1 | 13.3% | 6.31 µM [falling, single point] | 
40 | CCOc1ccccc1CN1CCN(Cc2ccc3cc(F)ccc3n2)CC1CCO (stereo unspecified) | -22.2% | 29.1 µM [falling, single point] | 

Row | SMILES | cell number change | AC50 [1] | AC50 [2]
41 | CC1CCc2ccc(F)cc2N1S(=O)(=O)c1cccs1 (stereo unspecified) | 2.25% | 6.51 µM [falling, single point] | 0.184 µM [falling, full curve, poor fit]
42 | O=S(=O)(c1cccc2nsnc12)N1CCc2ccccc21 | 46.9% | 29.1 µM [falling, single point] | 18.4 µM [rising, single point]
43 | Cc1ccc(NC2CCCN(C(=O)c3cccs3)C2)cc1C (stereo unspecified) | -39.9% |  | 29.1 µM [falling, single point]
44 | O=[n+]1cc(-c2ccccc2)n([O-])c2c1CCCCC2 |  | 29.1 µM [rising, single point] | 
45 | COc1ccc(CS(=O)/C(Cl)=C(/Cl)C(=O)Nc2ccc(OC)nc2)cc1 (stereo unspecified) | -65.1% |  | 
46 | COc1ccccc1C(=O)Nc1ccc(-c2nnn(CC(=O)N3CCN(C(=O)c4ccco4)CC3)n2)cc1 | -0.398% | 0.092 µM [rising, single point] | 
47 | CC(C)c1ccccc1OCC(=O)Nc1cc(S(=O)(=O)N2CCOCC2)ccc1N1CCCC1 | 0.486% | 0.58 µM [rising, full curve, poor fit] | 
48 | CC(=O)c1c(C)[nH]c(C(=O)OCc2ccccc2)c1C | 15.8% | 1.64 µM [rising, full curve] | 
49 | O=C(/C=C/c1ccc(O)cc1)OCc1occc(=O)c1O[C@@H]1OC(CO)[C@@H](O)[C@H](O)[C@@H]1O (stereo partly specified) | 0.208% | 0.291 µM [rising, full curve, poor fit] | 
50 | CCOC(=O)C(C(=O)N(C)Cc1ccccc1)C1CCCCC1 (stereo unspecified) | -17.9% | 4.11 µM [falling, single point] | 
51 | Cc1cc(C(=O)NCC(=O)Nc2c(C)cccc2C)c2ccccc2n1 | 18.4% | 0.082 µM [rising, full curve] | 
52 | CCNc1nc(Oc2ccc(C(=O)OCC)cc2)nc(SC)n1 | -9.16% | 3.66 µM [rising, single point] | 
53 | CC(C)CC(COCc1ccc(F)cc1)N1CCN(C(=O)c2cccc(C(F)(F)F)c2)CCC1=O (stereo unspecified) | 8.65% | 1.84 µM [rising, full curve, poor fit] | 
54 | O=C(CCN1c2ccccc2Sc2ccccc21)OCC(=O)N1CCN(C(=O)c2ccco2)CC1 | -14.8% | 32.6 µM [falling, single point] | 
55 | Cn1c(SCC(=O)NNC(=O)c2ccccc2)nnc1C1CC1 | 26.2% |  | 
56 | Cc1ccc(S(=O)(=O)N2CCSC2)cc1C | -30.7% | 2.31 µM [falling, full curve] | 1.84 µM [falling, full curve, poor fit]
57 | O=C(CSc1nccn1-c1ccccc1)NCc1ccc2c(c1)OCO2 |  | 1.3 µM [rising, full curve] | 0.92 µM [rising, partial curve]
58 | COc1ccc(/C=N/NC(=O)Cn2c(Cc3ccc(OC)c(OC)c3)nc3ccccc32)cc1 | 9.79% |  | 6.51 µM [falling, single point]

Four of the compounds above, as tab-separated lines.
Row	SMILES	cell number change	AC50 [1]	AC50 [2]
33	CCC1(C(=O)OC)NC(c2ccco2)C2C(=O)N(c3ccc(C)cc3)C(=O)C21 (stereo unspecified)		0.00461 µM [falling, full curve, poor fit]	
34	O=S(=O)(N1CCCCC1)N1CCNCC1	13.8%	23.1 µM [falling, single point]	
35	COC(=O)c1ccc(Nc2nc(N3CCOCC3)nc(N3CCOCC3)n2)cc1	0.295%	0.58 µM [rising, single point]	
36	CCOc1cc(C(=O)N(C)Cc2cc3ccccc3[nH]c2=O)cc(OCC)c1OCC	127%	0.651 µM [rising, single point]	0.411 µM [rising, single point]
